In patent CN115197321A:
No constants are given. Whether binding was seen depends on the method and setting. Some binding calls cover weakened binding; strength is not graded here.

By UniProt entry, the sequences of proteins in these tests, tags left out. Where a name states a change or a piece, a line headed by the entry shows the natural chain unless it says otherwise. Chains listed by the source or under a name are the forms on record and can include a tag or linker. Residues count along the entry.
UniProt P01589: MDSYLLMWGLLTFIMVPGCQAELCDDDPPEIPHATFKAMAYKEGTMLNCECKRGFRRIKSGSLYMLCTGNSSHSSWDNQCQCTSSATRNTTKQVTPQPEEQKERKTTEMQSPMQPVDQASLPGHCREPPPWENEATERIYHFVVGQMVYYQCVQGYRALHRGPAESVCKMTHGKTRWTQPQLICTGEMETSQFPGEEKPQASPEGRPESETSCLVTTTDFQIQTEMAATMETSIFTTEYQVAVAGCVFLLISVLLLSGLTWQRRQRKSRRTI
人CD25 (on CD25-positive cells: SU-DHL-1, U937, NK-92, human PBMC): residues 22-272 of P01589
CD25-hIgG1Fc(人CD25胞外域的C端融合人IgG1的Fc段): residues 22-240 of P01589
CD25-His(人CD25胞外域的C端融合6×His标签) (P01589, form named): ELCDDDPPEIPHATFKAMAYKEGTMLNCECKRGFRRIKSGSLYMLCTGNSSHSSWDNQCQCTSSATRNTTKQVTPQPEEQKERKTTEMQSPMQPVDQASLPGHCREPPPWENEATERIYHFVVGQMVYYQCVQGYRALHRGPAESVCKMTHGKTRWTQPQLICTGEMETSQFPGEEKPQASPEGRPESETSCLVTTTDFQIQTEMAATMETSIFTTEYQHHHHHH

What was measured:
[1] = target: 人CD25 (on CD25-positive cells: SU-DHL-1, U937, NK-92, human PBMC) (human) (UniProt P01589); assay: flow cytometry on SU-DHL-1 and U937 cells
[2] = target: CD25-His(人CD25胞外域的C端融合6×His标签) (human) (UniProt P01589); assay: ELISA, coated human CD25-His 50 ng/well, hybridoma supernatant
[3] = target: CD25-hIgG1Fc(人CD25胞外域的C端融合人IgG1的Fc段) (human) (UniProt P01589); assay: ELISA, coated CD25-hIgG1Fc (positive control of the lysate panel)

| binding [1] | binding [2] | binding [3] | Binder |
| --- | --- | --- | --- |
| binds | binds | binds | 杂交瘤抗体B7 (antibody, IgG1, V domains shown) VH: EVQLQESGPGLVKPSQSLSLTCTVTGYSITSDYAWNWIRQFPGNKLEWMGYINYSGSTSYNPSLKSRISITRDTSKNQFFLQLNSVTTEDTATYYCARKGGFFDVWGAGTTVTVSS VL: DIQMTQTTSSLSASLGDRVTISCSASQGISNYLNWYQQKPDGTVKLLIYYTSSLHSGVPSRFSGSGSGTDYSLTISNLEPEDIATYYCLQYSKLPWTFGGGTKLEIK |
| binds | – | binds | 杂交瘤抗体F10 (antibody, IgG2a, V domains shown) VH: QVQLKQSGPGLVQPSQSLSITCTVSGFSLTSYGVHWVRQSPGKGLEWLGVIWRGGSTDYNAAFMSRLSITKDNSKSQVFFKMNSLQAGDTAVYYCAKNERFYGFDYWGQGTTLTVSS VL: DIVMTQAAFSNPVTLGTSASISCRSSKSLLHSNGITYLYWYLQKPGQSPQLLIYQMSNLASGVPDRFSSSGSGTDFTLRISRVEAEDVGVYYCAQNLELPTFGSGTKLEIK |
